Structures are written as SMILES. This is one part of the list.

The experiment relates to T1, CTL2-GFP (C. trachomatis L2/434/Bu, GFP-expressing).
T1 construct: L2/434/Bu, GFP-expressing
On the set-up: species or system HeLa; Intracellular C. trachomatis growth in HeLa cells, bulk GFP fluorescence relative to DMSO. To be noted: bulk GFP, single well; 28.5 h, 10 µM; inhibitor.
Regarding `Nc1ccc(-c2cn3ccnc3c(NCc3ccccc3)n2)cc1` [CBK066592], the “% of control remaining” value stood at 124.695%.

In the case of `O=C(Nc1ccc(O)cc1C(=O)O)c1ccc2c(c1)C(=O)N(Cc1ccccc1)C2=O` [CBK266540], the “% of control remaining” value was 159.219%.

Take `Cn1ncc2c1CCCN(C(=O)COc1ccc(C(C)(C)C)cc1)C2` [CBK285286]: the “% of control remaining” value was 99.7629%.

With `COc1ccc(-c2ccc(N3CCN(CCN(C)C)CC3)nc2)cc1OC` [CBK036818], the “% of control remaining” value was 183.859%.

Consider `O=C(O)/C=C\C(=O)Nc1ccc(Cl)c(NC(=O)Cc2ccccc2)c1` [CBK263955], for which the “% of control remaining” value worked out at 137.673%.

With `COc1ncc(-c2cnc(N)c(-c3cccc(N(C)C)c3)n2)c(OC)n1` [CBK064017], the “% of control remaining” value is 190.926%.

For the compound `OC1(c2cccnc2F)CCN(Cc2cc(F)cc(F)c2)CC1` [CBK285375], the “% of control remaining” value is recorded as 133.766%.

`O=c1[nH]c2ccccc2cc1CNc1ccc(F)cc1F` [CBK281933]: the “% of control remaining” value came out at 139.534%.

Regarding `O=C1NC2(CC3CCC2CC3C(=O)NC2CC2)Oc2ccccc21` (centres unmarked) [CBK284352], the “% of control remaining” value was determined as 79.9927%.

`CN(C)c1ccc(-c2nc(-c3cccc(OC(F)(F)F)c3)cnc2N)cc1` [CBK063942]: the “% of control remaining” value is recorded as 188.207%.

As for `O=C(O)c1ccc(S(=O)(=O)c2ccc3c(c2)C(=O)N(c2cc(C(=O)O)cc(C(=O)O)c2)C3=O)cc1` [CBK262824], the “% of control remaining” value stood at 100%.

Turning to `C=CCNc1nccnc1-c1ccc(O)cc1` [CBK036898], the “% of control remaining” value turned out to be 184.829%.

Consider `CC(C)CNc1nc(SCC(N)=O)nc(N(C)C)n1` [CBK269579], for which the “% of control remaining” value was 109.863%.

`O=C(CC1CCCC1)N1CCCC(c2cc3cccnc3[nH]2)C1` (centres unmarked) [CBK284940]: the “% of control remaining” value is listed as 107.091%.

As for `CC1CCCC(C)N1C(=O)Cn1c(=O)n(C)c2ncccc21` (centres unmarked) [CBK282389], the “% of control remaining” value worked out at 104.244%.

In the case of `Cc1cc(-c2nnc3n2N=C(c2ccccc2)CS3)n[nH]1` [CBK287944], the “% of control remaining” value is recorded as 172.409%.

Consider `O=C(Nc1nnc[nH]1)c1ccccc1CCc1ccccc1` [CBK268616], for which the “% of control remaining” value is given as 132.137%.

In the case of `CC(C)(C)NS(=O)(=O)c1ccccc1[N+](=O)[O-]` [CBK260932], the “% of control remaining” value is given as 109.739%.

For `FC(F)(F)c1cccc(CSc2cc(N3CCCC3)ncn2)c1` [CBK107184], the “% of control remaining” value is reported as 111.529%.

Take `Cc1ccc(C(=O)C(C)OC(=O)c2ccc(NC(=O)c3ccccc3)cc2)cc1` (centres unmarked) [CBK264302]: the “% of control remaining” value came out at 100%.

Turning to `Cc1n[nH]c(NN)c1Cl` [CBK260876C], the “% of control remaining” value is listed as 110.829%.

Turning to `O=C(CSc1nnc(-c2ccncc2)[nH]1)c1ccc(O)cc1O` [CBK264353], the “% of control remaining” value was found to be 123.933%.

Regarding `Cc1nc(=O)c(-c2ccccc2)c(C)n1-c1ccc2cn[nH]c2c1` [CBK288193], the “% of control remaining” value came out at 134.13%.

Take `Cn1cc(C(=O)NC2CCN(C(=O)c3cccc(C#N)c3)CC2)cn1` [CBK305673]: the “% of control remaining” value came out at 125.537%.

With `NC(=O)CC[n+]1ccc2ccccc2c1` [CBK022857C], the “% of control remaining” value was 115.245%.

For the compound `O=C(Nc1ccc2ncccc2c1)c1cccc(F)c1Cl` [CBK159800], the “% of control remaining” value was 109.661%.

For `O=C(c1ccc(F)cc1)[C@H]1CCCN(C(=O)c2cc(C3CC3)n[nH]2)C1` [CBK282410], the “% of control remaining” value amounted to 125.385%.

For the compound `NC1=NNC2=C(c3ccc(Cl)cc3Cl)NNN12` [CBK093660], the “% of control remaining” value is given as 100%.

For `Cc1cc(C)cc(OCc2nnc(SCC(=O)Nc3cc(C(F)(F)F)ccc3Cl)o2)c1` [CBK267890], the “% of control remaining” value is 108.116%.

In the case of `COc1ccc(/C=N/c2cc(S(=O)(=O)c3ccc(O)c(/N=C/c4ccc(OC)c(O)c4)c3)ccc2O)cc1O` [CBK261223], the “% of control remaining” value came to 106.22%.

Regarding `Cn1c(=O)oc2cc(NC(=O)CC3CCN(Cc4cccc(C(F)(F)F)c4)CC3)ccc21` [CBK285953], the “% of control remaining” value was 134.262%.

Regarding `O=C(CSc1nnc(-c2ccccc2)n1-c1ccccc1)N/N=C/c1coc2ccccc2c1=O` [CBK262791], the “% of control remaining” value came to 103.512%.

In the case of `CCN(Cc1ccncc1)C(=O)Nc1ccc2[nH]ccc2c1` [CBK155136], the “% of control remaining” value was 127.949%.

With `CC(C)[C@H](CO)NC(=O)c1cnc(-c2ccc(Cl)cc2)c(-c2ccco2)c1` [CBK036658], the “% of control remaining” value was determined as 85.3994%.

`COc1cccc2c3c([nH]c12)C1(CCN(CCOc2ccccc2)CC1)N(C=O)CC3` [CBK039423]: the “% of control remaining” value was found to be 65.986%.

Consider `COc1cc(-c2cnc3[nH]c(=O)n(CCc4ccncc4)c3n2)cc(OC)c1OC` [CBK064620], for which the “% of control remaining” value is on record as 112.26%.

Regarding `CC(C)(C)OC(=O)N1CCC(N(CCC(F)(F)F)Cc2ccc(-c3ccc(S(C)(=O)=O)cc3)nc2)CC1` [CBK167262], the “% of control remaining” value was determined as 120.597%.

In the case of `Cc1ccccc1CSCC(=O)Nc1ccc(S(=O)(=O)N2CCCCC2)cc1` [CBK264006], the “% of control remaining” value is reported as 51.0049%.

As to `CC(=O)N1CCc2sccc2C1c1ccccc1NC(=O)C1CC1` (centres unmarked) [CBK282903], the “% of control remaining” value was 91.9838%.

As for `O=C(O)c1ccc(CN2C[C@H](O)C[C@H]2c2nc(-c3ccccn3)no2)cc1` [CBK288869], the “% of control remaining” value stood at 123.825%.

As to `C=CCC1(CC=C)CCN1C(=O)c1cc(-c2ccccn2)n[nH]1` [CBK282448], the “% of control remaining” value came out at 110.788%.

With `CSc1nnc2c(n1)[nH]c1ccccc12` [CBK025967], the “% of control remaining” value came to 89.5023%.

Turning to `COc1ccc(Nc2nc(-c3cc(C(C)C)ccc3OC)cnc2N)c(C)c1` [CBK064098], the “% of control remaining” value is 160.868%.

On to `COc1cccc(C(=O)NCCC(=O)N2CCc3sccc3C2)c1` [CBK305376], for which the “% of control remaining” value is given as 96.4328%.

As for `OCc1ccccc1-c1nccnc1NCc1ccco1` [CBK037098], the “% of control remaining” value turned out to be 134.593%.

For the compound `Cc1sc2c(C3CCN(C(=O)C4CC4)CC3)nc(C)n2c1C` [CBK285298], the “% of control remaining” value was 124.641%.

As for `O=C1CCc2c(Cc3c(Cl)cccc3Cl)c(O)nn21` [CBK083470], the “% of control remaining” value stood at 110.72%.

Consider `CCN(CC)CCNc1c(N)c(=O)oc2ccccc12` [CBK261469], for which the “% of control remaining” value is recorded as 100%.

For the compound `COc1ccc(-c2c[nH]c([C@@H]3COCCN3Cc3ccc(C(=O)O)cc3)n2)cc1` [CBK289305], the “% of control remaining” value is listed as 154.063%.

Consider `COc1ccccc1NC(=O)C(c1ccccc1)N1CCOCC1` (centres unmarked) [CBK269561], for which the “% of control remaining” value came out at 94.711%.

For `Cn1c(=O)c(C(=O)Nc2ccc(OCc3ccccc3F)cc2)nc2ccccc21` [CBK285820], the “% of control remaining” value stood at 104.708%.

Regarding `O=C(Nc1ccc(=O)n2c1[C@@H]1C[C@@H](CN(C(=O)COc3ccccc3)C1)C2)c1cncnc1` [CBK288712], the “% of control remaining” value came out at 122.576%.

Take `O=C(O)CC(C(=O)OC1CCCCC1)N1CCOCC1` (centres unmarked) [CBK265970]: the “% of control remaining” value is listed as 190.557%.

As to `O=C(NCCn1nc2c(cc1=O)CCCCC2)c1ccccc1` [CBK283278], the “% of control remaining” value stood at 130.678%.

`COc1ccc(-n2ncc3c2CC(C)(C)CC3NS(C)(=O)=O)cc1` (centres unmarked) [CBK306759]: the “% of control remaining” value is 128.682%.

On to `CCOc1ncccc1C(=O)OCc1cc2ccc(OC)cc2nc1Cl` [CBK295289], for which the “% of control remaining” value came to 150.767%.

As to `O=C(O)c1ccc(CN2C[C@H](O)C[C@H]2c2nc(-c3ccc(F)cc3)no2)cc1` [CBK288870], the “% of control remaining” value was determined as 102.167%.

Consider `O=C(NC1CC1)N1CCN(CCCOc2ccc(F)cc2)CC1` [CBK025077C], for which the “% of control remaining” value came out at 104.983%.

As to `N#CCCCN1CCC(Oc2nccnc2OCc2cccc(Br)c2)CC1` [CBK153631], the “% of control remaining” value turned out to be 126.674%.

In the case of `O=C(Nc1ccccc1C(=O)Nc1ccccc1C(=O)O)c1ccccc1` [CBK261551], the “% of control remaining” value is on record as 81.9492%.

Take `Cn1nc(C(=O)NCCSc2n[nH]c(=O)[nH]c2=O)c2ccccc2c1=O` [CBK297501]: the “% of control remaining” value is 146.104%.

On to `COc1ccc(C(C)C)cc1-c1cnc2nc(O)ccc2c1` [CBK081286], for which the “% of control remaining” value is 76.0459%.

In the case of `CCCCn1cc(CN(C)C)c2c(C)ccnc21` [CBK008697], the “% of control remaining” value was found to be 106.445%.

Regarding `O=C(NC1(c2ccccc2)CC1)c1cc(-n2cnnc2)ccc1Cl` [CBK282777], the “% of control remaining” value is listed as 113.745%.

Consider `O=[N+]([O-])c1ccc(N2CCNCC2)cc1NCc1ccccn1` [CBK268074], for which the “% of control remaining” value was determined as 110.085%.

On to `O=S(=O)(NC1CCN(Cc2ccccc2)CC1)c1cccc2nsnc12` [CBK062029], for which the “% of control remaining” value was determined as 103.711%.

Regarding `Cc1[nH]nc(-c2ccc(O)c(C)c2O)c1Oc1ccc(F)cc1` [CBK264478], the “% of control remaining” value is on record as 63.6267%.

For `CCN(CC)c1ccc(/C=N/NC(=O)CC2=NNC(=O)C2)cc1` [CBK020059], the “% of control remaining” value turned out to be 155.57%.

On to `COc1ccc(-c2nc(-c3ccc(C#N)cc3)cnc2N)cc1OC` [CBK063885], for which the “% of control remaining” value is on record as 73.1914%.

On to `COc1ccc(C2(C(=O)Nc3ccc(-c4ccccc4OC)cc3)CCOCC2)cc1` [CBK285710], for which the “% of control remaining” value stood at 99.1978%.

As to `CC(C)[C@H]1CN(Cc2ccco2)CCN1C(=O)N1CCOCC1` [CBK284273], the “% of control remaining” value came out at 121.303%.

`CCOC(=O)COc1ccc(C#N)cc1OCC` [CBK058937]: the “% of control remaining” value came out at 126.023%.

As for `Cc1cc(NC(=O)c2ccc(OC(C)C)cc2)no1` [CBK287575], the “% of control remaining” value stood at 164.291%.

With `O=C(c1nc2ccccc2s1)C1CCN(C(=O)CCc2ccc(-c3ccccc3)o2)CC1` [CBK286170], the “% of control remaining” value is on record as 124.476%.

Turning to `CCN(CC)C(=O)Cn1nc(C)n2c(cc3sccc32)c1=O` [CBK284044], the “% of control remaining” value is 145.487%.

In the case of `Cn1ccnc1C(NC(=O)C1C2CCCCC21)c1ccc(F)cc1` (centres unmarked) [CBK281441], the “% of control remaining” value is listed as 111.35%.

Turning to `O=C(O)COc1cccc(NC(=O)c2ccccc2)c1` [CBK264602], the “% of control remaining” value stood at 100%.

For the compound `Cc1cc(NC(=O)C(C)(C)C)nc2c1c(=O)oc1ccccc12` [CBK287443], the “% of control remaining” value was found to be 152.293%.

On to `COc1ccc(Cl)cc1C1(CNC(=O)C2CCC(N)C2)CCOCC1` (centres unmarked) [CBK305523], for which the “% of control remaining” value is 129.569%.

`CC(C)(C)OC(=O)N1CCC(C(=O)NC[C@H](CC(=O)O)c2ccc(Cl)cc2)CC1` [CBK286691]: the “% of control remaining” value amounted to 112.443%.
